No constants are given. Whether binding was seen depends on the method and setting. In cells and extracts the contact can be indirect. A yes stands for co-enrichment or nearness to the bait. Other partners may have been found.
Target: Drosophila PH4αEFB (Drosophila melanogaster (endogenous in D17 cells))
Assay: affinity purification with mass spectrometry; both proteins endogenous in D17 lysate and recovered together on gelatine Sepharose 4B after a 1 M NaCl wash; gel bands identified by protein ID LC-MS

B1: Drosophila protein disulfide isomerase (enzyme, UniProt P54399 19-496)
chain: AEAEVKVEEGVLVATVDNFKQLIADNEFVLVEFYAPWCGHCKALAPEYAKAAQQLAEKESPIKLAKVDATVEGELAEQYAVRGYPTLKFFRSGSPVEYSGGRQAADIIAWVTKKTGPPAKDLTSVADAEQFLKDNEIAIIGFFKDLESEEAKTFTKVANALDSFVFGVSSNADVIAKYEAKDNGVVLFKPFDDKKSVFEGELNEENLKKFAQVQSLPLIVDFNHESASKIFGGSIKSHLLFFVSREGGHIEKYVDPLKEIAKKYRDDILFVTISSDEEDHTRIFEFFGMNKEEVPTIRLIKLEEDMAKYKPESDDLSAETIEAFLKKFLDGKLKQHLLSQELPEDWDKNPVKVLVSSNFESVALDKSKSVLVEFYAPWCGHCKQLAPIYDQLAEKYKDNEDIVIAKMDSTANELESIKISSFPTIKYFRKEDNKVIDFNLDRTLDDFVKFLDANGEVADSEPVEETEEEEEAPKKDEL
binding: binds

Source: publication PMC12340787
